In patent publication US12577273B2, “Small molecule modulators of gut bacterial bile acid metabolism” (priority 2019, dated 2026):
Where “and” joins values, the source holds several entries; their conditions need not be identical. Equal entries are not always repeated. At least one read-out could not be matched to a standard name with certainty.

By UniProt entry, the sequences of proteins in these tests, tags left out.
UniProt Q8A600, entry or part of it, stated change not applied: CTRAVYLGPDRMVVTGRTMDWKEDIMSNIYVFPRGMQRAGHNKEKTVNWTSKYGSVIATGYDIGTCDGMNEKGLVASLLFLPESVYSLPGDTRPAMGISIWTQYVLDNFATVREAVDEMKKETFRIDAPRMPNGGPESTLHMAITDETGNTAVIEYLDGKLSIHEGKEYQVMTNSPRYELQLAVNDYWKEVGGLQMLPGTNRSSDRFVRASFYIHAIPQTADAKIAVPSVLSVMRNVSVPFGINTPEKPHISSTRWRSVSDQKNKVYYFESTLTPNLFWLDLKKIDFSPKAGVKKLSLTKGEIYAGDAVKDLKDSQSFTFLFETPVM

Assays:
B. longum BSH = target: T1, B. longum BSH (Bifidobacterium longum, UniProt Q9KK62); assay: Inhibitor screen using rBSH, B. longum BSH (UPLC-MS % deconjugation); format: biochemical, Bifidobacterium longum SBT2928; design: His6 (C); made in house; host or cells: Escherichia coli (as for the B. theta enzyme); settings: 100 μM inhibitor, 200 nM rBSH, bile acid pool, replicates 1-3
T1 sequence (Q9KK62 1-317): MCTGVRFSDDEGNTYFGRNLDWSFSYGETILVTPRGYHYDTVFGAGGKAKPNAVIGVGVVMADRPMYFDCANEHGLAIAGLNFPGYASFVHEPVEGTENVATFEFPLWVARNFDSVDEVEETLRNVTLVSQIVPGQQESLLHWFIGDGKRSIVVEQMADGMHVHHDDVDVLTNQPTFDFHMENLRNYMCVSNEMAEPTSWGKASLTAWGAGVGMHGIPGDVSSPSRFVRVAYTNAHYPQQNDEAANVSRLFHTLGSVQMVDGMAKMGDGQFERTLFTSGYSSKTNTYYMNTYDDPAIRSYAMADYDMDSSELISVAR
Protocol: B. longum rBSH. Recombinant BSH from B. longum SBT2928 was expressed and purified as above, except 0.25 mM IPTG was used for protein expression and 1 mM TCEP for protein purification.
Inhibitor Screen Using rBSHs.

B. theta BSH = B. theta BSH (Bacteroides thetaiotaomicron, UniProt Q8A600); assay: Inhibitor screen using rBSH, B. theta BSH (UPLC-MS % deconjugation); settings: 100 μM inhibitor, 200 nM rBSH, replicates 1-3
[1] = FIG. 2a, 2 hours, bile acid pool
[2] = FIG. 2a, 21 hours, bile acid pool
[3] = Supplementary FIG. 3a, 5 hours, bile acid pool

Compound | % deconjugation of TCA (B. longum BSH; FIG. 2b, 2 hours) | % deconjugation of TDCA (B. longum BSH; FIG. 2b, 2 hours) | % deconjugation of TUDCA (B. longum BSH; FIG. 2b, 2 hours) | % deconjugation of TβMCA (B. longum BSH; FIG. 2b, 2 hours) | % deconjugation of TCA (B. longum BSH; FIG. 2b, 21 hours) | % deconjugation of TDCA (B. longum BSH; FIG. 2b, 21 hours) | % deconjugation of TUDCA (B. longum BSH; FIG. 2b, 21 hours) | % deconjugation of TβMCA (B. longum BSH; FIG. 2b, 21 hours) | % deconjugation of TCA (B. longum BSH; Supplementary FIG. 3b, 5 hours) | % deconjugation of TDCA (B. longum BSH; Supplementary FIG. 3b, 5 hours) | % deconjugation of TUDCA (B. longum BSH; Supplementary FIG. 3b, 5 hours) | % deconjugation of TβMCA (B. longum BSH; Supplementary FIG. 3b, 5 hours) | % deconjugation of TDCA (B. theta BSH; [1]) | % deconjugation of TUDCA (B. theta BSH; [1]) | % deconjugation of TCA (B. theta BSH; FIG. 2a, 2 hours, pool of four tauro conjugated bile acids 25 μM each) | % deconjugation of TCA (B. theta BSH; [2]) | % deconjugation of TDCA (B. theta BSH; [2]) | % deconjugation of TUDCA (B. theta BSH; [2]) | % deconjugation of TDCA (B. theta BSH; [3]) | % deconjugation of TUDCA (B. theta BSH; [3])
O=C(/C=C/c1ccc(O)c(O)c1)OCCc1ccccc1 [CAPE, caffeic acid phenethyl ester, reference compound] | 68.68% and 55.04% and 54.30% | 93.93% and 93.63% and 93.26% | 26.95% and 25.15% and 24.35% | 2.05% and 1.81% and 1.50% | 98.46% and 97.65% and 98.90% | 97.84% and 98.03% and 97.42% | 93.63% and 92.01% and 93.28% | 25.75% and 19.28% and 23.96% | 90.99% and 93.66% and 93.73% | 99.78% and 99.73% and 99.81% | 48.74% and 50.94% and 49.29% | 4.55% and 5.27% and 5.06% | – | – | – | – | – | – | – | –
C[C@H](CCC(=O)CF)[C@H]1CC[C@H]2[C@@H]3[C@H](O)C[C@@H]4C[C@H](O)CC[C@]4(C)[C@H]3CC[C@]12C [Compound 7] | 0.03% and 0.98% and 1.05% | 0.15% and 0.19% and 0.24% | 1.05% and 1.39% and 1.43% | 0.49% and 0.06% and 0.04% | 1.61% (2×) and 1.00% | 0.37% and 0.22% and 0.39% | 2.11% and 1.54% and 2.36% | 0.11% (2×) and 0.08% | 0.88% and 1.09% and 1.15% | 0.15% and 0.17% (2×) | 1.39% and 1.34% and 1.51% | 0.05% and 0.04% (2×) | 2.16% and 1.98% and 2.01% | 1.77% and 1.53% and 1.45% | 0.00% and 0.06% and 0.07% | 0.00% (2×) and 0.09% | 0.45% and 2.25% and 0.53% | 0.32% and 1.81% and 1.09% | 1.60% and 2.00% and 1.32% | 1.27% and 1.43% and 1.05%
